{"source": "PubChem BioAssay AID1347076", "about": "(National Center for Advancing Translational Sciences (NCATS), 2019)", "note": "Among all 400,000 compounds or so, about 13,000 (3.2%) were called active. The shares of active, inactive and inconclusive entries below differ from those in the screen. Calls come from the whole dose curve; as a rule, active = well fitted cell-killing curve with a large enough effect; inconclusive = small, poorly fitted or top-dose-only effect, or effect the other way; inactive = flat fitted curve, though single readings scatter. Potencies beside an inconclusive call are fits to weak or partial responses and may not hold up. % is set by controls: 0 for no effect and ±100 for the full control effect; potency is the fitted concentration of half-maximal effect."}
{"experiment": "qHTS assay for MDR1-selective chemotherapeutics: Primary screen using the drug-selected MDR subline cells KB-V1; note: nearly all actives have a fitted effect of over 60% in size", "details": "KB-V1 MDR cells viability, CellTiter-Glo, 72 h; activity change, negative = cytotoxicity: at 46.1 µM (top of the series)", "outline": "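Readout: CellTiter-Glo luminescence, 10 min after addition. Cells: KB-V1 MDR subline, 72 h at 37 degrees C with compound. Analysis: corrected, normalized data fitted to concentration-effect curves.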"}
{"smiles": "CCn1c(=N)c(C(=O)NCc2ccccc2)cc2c(=O)n3cc(C)ccc3nc21", "activity change, negative = cytotoxicity": "inconclusive: 45.5%"}
{"smiles": "CCOc1ccc(NC(=O)CCC(=O)c2ccc(Br)cc2)cc1", "Potency": "inactive"}
{"smiles": "CC(C)c1ccc(N2C(=O)CS(=O)(=O)C23C(=O)N(Cc2cccc(F)c2)c2ccccc23)cc1", "note": "(centres undefined)", "Potency": "inactive"}
{"smiles": "Cc1nc(SCC(=O)NC(=O)NC(C)C)nc(C)c1C", "Potency": "inconclusive: 29.1 µM [cytotoxic, single point]"}
{"smiles": "CCOC(=O)c1c(C)n(C)c2ccc(O)c(CN3CCCCC3)c12", "Potency": "inconclusive: 11.6 µM [cytotoxic, partial curve]"}
{"smiles": "CCC1CN(C(=O)NCc2ccc(C)cc2)c2ccccc2O1", "note": "(centres undefined)", "activity change, negative = cytotoxicity": "inconclusive: 34.9%"}
{"smiles": "CCOc1cc(NC(=S)NC)c(OCC)cc1NC(=O)c1ccc(OC)cc1", "Potency": "inactive"}
{"smiles": "O=C(CN1c2ccccc2Sc2ccccc21)NNC(=S)Nc1ccc(Cl)cc1Cl", "Potency": "active: 13 µM"}
{"smiles": "O=C(CSc1nnc(-c2ccccc2F)o1)Nc1ccc(N2CCOCC2)cc1", "Potency": "inconclusive: 11.6 µM [rising, partial curve, poor fit]"}
{"smiles": "N#Cc1c(N)n(-c2cccc(C(=O)O)c2)c2nc3ccccc3nc12", "Potency": "inactive"}
{"smiles": "Cc1cccc(OCC(=O)N2CCN(C(=O)COc3ccc(Cl)cc3)CC2)c1", "Potency": "inconclusive: 7.31 µM [cytotoxic, partial curve]"}
{"smiles": "CCC1(c2ccccc2)NC(=O)N(CC(=O)NCCN2C(=O)S/C(=C\\c3cccnc3)C2=O)C1=O", "note": "(centres undefined)", "Potency": "inconclusive: 16.4 µM [rising, single point]"}
{"smiles": "COCCn1c(SCC(=O)NCC(c2ccccc2)N(C)C)nc2sc3c(c2c1=O)CCC3", "note": "(centres undefined)", "Potency": "inactive"}
{"smiles": "CC[C@@H](C)[C@@H](CO)NC(=O)[C@H]1O[C@@H](n2cnc3c(N)ncnc32)[C@H](O)[C@@H]1O", "Potency": "inactive"}
{"smiles": "Cc1nc2ccc(S(=O)(=O)N3CCCCC3)cc2s1", "Potency": "inconclusive: 16.4 µM [cytotoxic, single point]"}
{"smiles": "CCOC(=O)[C@]12CCCC=C1N(CCC1=CCCCC1)C(=O)[C@H](CC(=O)NCc1cccc(C(F)(F)F)c1)C2", "Potency": "inconclusive: 11.6 µM [cytotoxic, partial curve]"}
{"smiles": "C=CCn1c(C)nnc1SCC(=O)N1c2ccccc2NC(=O)C1(C)C", "Potency": "inactive"}
{"smiles": "COc1ccc([C@H]2CC(=O)C[C@@H](CCn3cc(-c4ccccc4)nn3)O2)cc1", "Potency": "inconclusive: 18.4 µM [cytotoxic, partial curve, poor fit]"}
{"smiles": "O=C(NCc1ccccc1)C(C1CC1)n1c(=O)c(-c2cc3ccccc3[nH]2)nc2ccccc21", "note": "(centres undefined)", "Potency": "inactive"}
{"smiles": "Cc1cc2c(C(C)C)c(O)c(O)c(C=O)c2c(O)c1-c1c(C)cc2c(C(C)C)c(O)c(O)c(C=O)c2c1O", "Potency": "inconclusive: 4.11 µM [cytotoxic, full curve, poor fit]"}
{"smiles": "CCC(C)(C)NC(=O)C(c1ccccc1F)N(Cc1ccco1)C(=O)c1csnn1", "note": "(centres undefined)", "Potency": "active: 18.4 µM"}
{"smiles": "O=C(CCCN1C(=O)CCC1=O)Nc1ccc(Br)cc1F", "Potency": "inconclusive: 14.6 µM [cytotoxic, partial curve, poor fit]"}
{"smiles": "O=C(Cn1cnc2ccccc2c1=O)NCCC(=O)N1CCN(c2ccccc2)CC1", "Potency": "inconclusive: 29.1 µM [cytotoxic, partial curve, poor fit]"}
{"smiles": "CCC(COC(=O)Nc1cccc(C)c1)NC(=O)OCC(C)C", "note": "(centres undefined)", "Potency": "active: 3.66 µM"}
{"smiles": "O=C(c1ccc(COc2ccccc2[N+](=O)[O-])o1)N1CCCCC1", "Potency": "inconclusive: 22.4 µM [cytotoxic, single point]"}
{"smiles": "Cc1nc2c(-c3ccccc3)c(C)nn2c(C)c1CC(=O)O", "Potency": "inactive"}
{"smiles": "O=C(Nc1ccon1)c1cc(-c2ccccc2)nc2ccccc12", "Potency": "inconclusive: 29.1 µM [cytotoxic, single point]"}
{"smiles": "CSc1ccccc1NC(=O)CN(C)CC(=O)c1c(C)[nH]c2ccccc12", "Potency": "active: 20.6 µM"}
{"smiles": "O=c1ccc(-c2ccc(S(=O)(=O)N3CCN(c4ccccc4)CC3)o2)n[nH]1", "Potency": "inconclusive: 1.46 µM [rising, full curve]"}
{"smiles": "Cc1cc(C)cc(NC(=O)COC(=O)CCC2CCCC2)c1", "Potency": "inconclusive: 29.1 µM [rising, single point]"}
{"smiles": "COc1ccc(CNC(=O)CN(Cc2ccc(Cl)cc2)S(=O)(=O)c2ccccc2)cc1", "Potency": "inconclusive: 8.2 µM [cytotoxic, partial curve, poor fit]"}
{"smiles": "Cc1cccc(N2CCN(C(=O)c3cccc(N4CCCC4=O)c3)C(C)C2)c1", "note": "(centres undefined)", "Potency": "inconclusive: 4.11 µM [cytotoxic, full curve]"}
{"smiles": "Cc1nnc(NC(=O)CSc2ncnc3scc(-c4ccccc4)c23)s1", "Potency": "inconclusive: 32.6 µM [cytotoxic, partial curve, poor fit]"}
{"smiles": "Cc1cc(/C=c2/sc3nc4ccccc4n3c2=O)c(C)n1-c1ccccn1", "Potency": "inconclusive: 29.1 µM [cytotoxic, single point]"}
{"smiles": "CCN(CC)CCNC(=O)c1cc(-c2ccco2)nc2ccccc12", "Potency": "inconclusive: 10.3 µM [cytotoxic, partial curve]"}
{"smiles": "COCCCNc1nc(=S)[nH]c2cc(OC)c(OC)cc12", "Potency": "inactive"}
{"smiles": "CCc1cccc2c(C(=O)Cn3nnc(-c4ccc(OC)c(OC)c4)n3)c[nH]c12", "Potency": "inconclusive: 1.84 µM [cytotoxic, partial curve, poor fit]"}
{"smiles": "CN(NS(=O)(=O)c1ccccc1)C(=O)c1ccccc1", "Potency": "inconclusive: 0.651 µM [rising, full curve, poor fit]"}
{"smiles": "CC(OC(=O)C1=COCCO1)C(=O)Nc1ccc(Cl)cn1", "note": "(centres undefined)", "Potency": "inactive"}
{"smiles": "CCc1ccccc1NC(=O)c1cc([N+](=O)[O-])ccc1N1CCOCC1", "Potency": "inactive"}
{"smiles": "Cc1cc(NC(=O)c2cccc(C(=O)Nc3cc(C)on3)n2)no1", "Potency": "inconclusive: 29.1 µM [cytotoxic, single point]"}
{"smiles": "CC12CCC(C(=O)Nc3cccc4ccccc34)(C1Br)C2(C)C", "note": "(centres undefined)", "Potency": "inconclusive: 32.6 µM [cytotoxic, single point]"}
{"smiles": "CCCCOc1cccc(C(=O)Nc2cccc(-c3nc4ncccc4o3)c2C)c1", "Potency": "inactive"}
{"smiles": "O=C(Nc1nc(-c2ccccc2)c(C(=O)c2ccccc2)s1)c1ccc(S(=O)(=O)N2CCCC2)cc1", "Potency": "active: 3.66 µM"}
